# In patent US20220340849A1, “BRAIN-CHIP MODELING NEURODEGENERATION AND NEUROINFLAMMATION IN PARKINSON'S DISEASE” (EMULATE, INC., priority 2019, published 2022):
# Experiments:
# [1] = system: cells of brain parenchyma (Brain Channel); assay: RNA-seq differential gene expression, brain channel, TNFα exposed vs Healthy Brain-Chips; type: cell-based, human
# [2] = system: endothelial cells (Vascular Channel); assay: RNA-seq differential gene expression, vascular channel, TNFα exposed vs Healthy Brain-Chips; type: cell-based, human
# [3] = Neuroinflammation (TNFα in brain channel) vs Healthy Brain-Chips
# [4] = Systemic Inflammation (TNFα in vascular channel) vs Healthy Brain-Chips
substance,measurement,setting,value
TNF-α,# down-regulated,[1]; [3],373
same,# up-regulated,[1]; [3],801
same,# DE Genes,"[1]; Neuroinflammation (TNFα in brain channel) vs Healthy Brain-Chips, adj.p<0.01, |log2FC|>1",1174
same,# DE Genes,[1]; [4],528
same,# down-regulated,[1]; [4],55
same,# up-regulated,[1]; [4],473
same,# DE Genes,[2]; [3],387
same,# DE Genes,[2]; [4],422
same,# down-regulated,[2]; [4],51
same,# up-regulated,[2]; [4],371
